Publication doi:10.1101/2025.06.27.661541
Results are given in words; binding and its absence hold for the method and conditions named. Binding can be weak; no strength is given. Sequences can lack the tags named with a protein.

T1: MinC, bacterial two-hybrid fusion (Anabaena sp. PCC 7120) (UniProt Q8YRJ1)
T1 sequence: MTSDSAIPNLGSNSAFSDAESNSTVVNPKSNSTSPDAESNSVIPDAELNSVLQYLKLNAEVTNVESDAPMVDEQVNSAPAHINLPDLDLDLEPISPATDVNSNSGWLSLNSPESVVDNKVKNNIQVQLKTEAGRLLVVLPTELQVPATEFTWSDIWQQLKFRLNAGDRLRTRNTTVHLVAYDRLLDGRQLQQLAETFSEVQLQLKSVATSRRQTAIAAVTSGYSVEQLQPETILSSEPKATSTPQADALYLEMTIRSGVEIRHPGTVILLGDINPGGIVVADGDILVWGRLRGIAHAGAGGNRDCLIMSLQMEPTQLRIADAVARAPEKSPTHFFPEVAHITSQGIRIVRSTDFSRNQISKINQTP

B1: MinC, bacterial two-hybrid fusion (protein, UniProt Q8YRJ1 1-366)
chain: T1 sequence

What was measured:
[1] = molecular target: T1, MinC, bacterial two-hybrid fusion (Anabaena sp. PCC 7120); experiment: two-hybrid
[2] = molecular target: CorR, bacterial two-hybrid fusion (Anabaena sp. PCC 7120); experiment: two-hybrid

Row | Molecule | binding [1] | binding [2]
1 | MinE, bacterial two-hybrid fusion (Anabaena sp. PCC 7120) | binds | 
2 | Cdv3, bacterial two-hybrid fusion (Anabaena sp. PCC 7120) | binds | 
3 | B1 |  | binds
